# Results: article PMC7819943, “Rice protein-binding microarrays: a tool to detect cis-acting elements near promoter regions in rice”
# Sequences of proteins named here, by UniProt entry; tags and fusion partners are left off.
# UniProt Q0JBA9, entry or part of it: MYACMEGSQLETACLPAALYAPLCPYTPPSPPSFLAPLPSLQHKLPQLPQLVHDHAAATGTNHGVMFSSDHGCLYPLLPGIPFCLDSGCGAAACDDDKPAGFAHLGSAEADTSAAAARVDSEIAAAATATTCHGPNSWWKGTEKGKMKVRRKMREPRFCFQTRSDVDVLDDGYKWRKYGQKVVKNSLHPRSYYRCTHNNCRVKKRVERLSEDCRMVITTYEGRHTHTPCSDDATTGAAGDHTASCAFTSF
# The list shows a part of the results.
# Target: OsWRKY34 (Oryza sativa, UniProt Q0JBA9 1-250)
# Assay: protein-binding microarray (RPBM); PBS, 2% BSA, 51.3 ng/ul salmon testes DNA, 50 uM zinc acetate, 200 nM TF, 25 C, 1 h; high values mean tight binding
# Details: protein: recombinant; tags: N-terminal polyhistidine and DsRed monomer fusion (pET32a); label: CyDye5-dUTP incorporated in the synthesized complementary strand; 3' TTTTT single-stranded linker to array surface; dsDNA, one strand shown
# Method in brief: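 Using Ni–NTA, transcription factors fused N-terminally to polyhistidine and DsRed were purified after expression in E. coli BL21-CodonPlus. These were incubated at 200 nM with a blocked, double-stranded custom Agilent array for 1 h at 25 °C in a buffer containing 50 µM zinc acetate, and the array was washed. The binding signal is per-feature fluorescence intensity (arbitrary units) on an Axon 4000B scanner.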
row,Sequence,binding signal
1,CGCTTACCACTCTCCTCTAGCCGCCGGCGCCTCCGCCGCGCGGAGTCACCTAGTGCAG,11100 fluorescence intensity (a.u.)
2,AACTTGCTCTAATGATTTCCTCAAGTTGTTTAATTTTTGACGGAGTCACCTAGTGCAG,9010 fluorescence intensity (a.u.)
3,AGCATTTAACTATTTACCACTCATAGTCTATACCCTTCTCCGGAGTCACCTAGTGCAG,9170 fluorescence intensity (a.u.)
4,CGCACCGCCGGACCAGCGCCGCCATCCCAAATCGCAAACACGGAGTCACCTAGTGCAG,8650 fluorescence intensity (a.u.)
5,GGCCCATTTTGCCACCAGGATCCCTAGTTCTCTAGTCCCTCGGAGTCACCTAGTGCAG,9600 fluorescence intensity (a.u.)
6,ACGAGAAGTTGCAGAACTAGTTTGTTTTCACGATACCATGCGGAGTCACCTAGTGCAG,8360 fluorescence intensity (a.u.)
7,TTGCAATGCGTGCACCATGTCGGATCGATACCACCTTTGACGGAGTCACCTAGTGCAG,8090 fluorescence intensity (a.u.)
8,TGAGCCGTGGGCAAAGCTCAACCTGTAATTCAGTTTCTTGCGGAGTCACCTAGTGCAG,8100 fluorescence intensity (a.u.)
9,AGGTTGTTATATTTTTGGACTGATGGGGTATATTACTAACCGGAGTCACCTAGTGCAG,8180 fluorescence intensity (a.u.)
10,GACTCCGCCGGCCCACTCGCTCACTGCGCCGCCGCTCATCCGGAGTCACCTAGTGCAG,10400 fluorescence intensity (a.u.)
11,CCGACCTCCCCGCCAATTTTTCCGCCTGTTTTAGTTTTCCCGGAGTCACCTAGTGCAG,8030 fluorescence intensity (a.u.)
12,CTTGTCACCATTGCATCATGCTATCTTAGCTCTTGCTAAACGGAGTCACCTAGTGCAG,11200 fluorescence intensity (a.u.)
13,TCCACACTACTACAGTCCACAGCATCTCCATTCCCATCTCCGGAGTCACCTAGTGCAG,8950 fluorescence intensity (a.u.)
14,GCCCGTCCACCTCCCCGTCGATTGGTTGGTCTTAATGGCTCGGAGTCACCTAGTGCAG,10800 fluorescence intensity (a.u.)
15,TTTGCATTGTCGTTTGCCGTGTTAGTTTAGTGAGCAGATTCGGAGTCACCTAGTGCAG,8940 fluorescence intensity (a.u.)
16,GTTCTTACCTGTCCGAGCTGTGTTCTCCTTCTACCGTTCTCGGAGTCACCTAGTGCAG,9210 fluorescence intensity (a.u.)
17,CCTCACCTCCACGTGGGCCCCACCTAACCTGGACCCCACACGGAGTCACCTAGTGCAG,8460 fluorescence intensity (a.u.)
18,CCGCCGAGCAGCTAGCACCGGAGTGTTGGGAGGGGAGGCTCGGAGTCACCTAGTGCAG,8500 fluorescence intensity (a.u.)
19,ACCTTAGCCAGTTAGCCTCTGCCGCCGCGACCGACCGCGACGGAGTCACCTAGTGCAG,9350 fluorescence intensity (a.u.)
20,ACATGATGCTTAGGGGCTGGTCAGATTGATACCATTTTTACGGAGTCACCTAGTGCAG,8500 fluorescence intensity (a.u.)
21,ACTCACACTAGCTTGAAACTATCTGCGTACTCAAATTCAACGGAGTCACCTAGTGCAG,8080 fluorescence intensity (a.u.)
22,GGTTCTTTGTTTCCGTTTGCTTTACCATTTTTGTTCCTTTCGGAGTCACCTAGTGCAG,10000 fluorescence intensity (a.u.)
23,ACCTCGACGCCTCGCCTGCGGCCGCCTCCGCCTTGCCCGCCGGAGTCACCTAGTGCAG,9580 fluorescence intensity (a.u.)
24,CCCACAAATGCCGTTGTTGTACTTCTGACTGGGGAGAGGACGGAGTCACCTAGTGCAG,9060 fluorescence intensity (a.u.)
25,TATCGATCTATATAAACCACATTCCTGGCCTGCTTTTTCTCGGAGTCACCTAGTGCAG,8380 fluorescence intensity (a.u.)
26,CCGCTACCTCCGCCGTCGCCGTCCTCGCCGCTCCCGCGCCCGGAGTCACCTAGTGCAG,9080 fluorescence intensity (a.u.)
27,CGCCCGCTTGTCTTGTCTGACTTCTTGTTGCCTCTTGCCTCGGAGTCACCTAGTGCAG,13100 fluorescence intensity (a.u.)

row,Sequence,binding signal
1,CACTCCACAGCCATCATCGCGCTCGCACCCGCGAAAACGCCGGAGTCACCTAGTGCAG,8160 fluorescence intensity (a.u.)
2,GCTCAAATCTTAGCTCTAACCACGCGGCCCAACCTGGAATCGGAGTCACCTAGTGCAG,8160 fluorescence intensity (a.u.)
3,GCAACCATAATTTATTGCCCTGCACAGTTGCATTAACTTCCGGAGTCACCTAGTGCAG,8300 fluorescence intensity (a.u.)
4,GACTTTTCTTCCTAGATAGGATCATTTTCATACTTTATTGCGGAGTCACCTAGTGCAG,9130 fluorescence intensity (a.u.)
5,TTTTTGTTTTGGGCTTTTATTGTATCCAATGGGTCATGAACGGAGTCACCTAGTGCAG,8830 fluorescence intensity (a.u.)
6,GATTGCGGCGCGGCGCGGGAGGGGATTTGTTCGTGGATCGCGGAGTCACCTAGTGCAG,8640 fluorescence intensity (a.u.)
7,TAGATATCTGACCATTAATGTACTTGCTTTCTACACCAAACGGAGTCACCTAGTGCAG,8370 fluorescence intensity (a.u.)
8,ATTTCTTAAAAGCTTTTCTTACATACATTTTAATAATCTTCGGAGTCACCTAGTGCAG,9200 fluorescence intensity (a.u.)
9,TCATCTTCCCCGAGCTGGACCCCACCGCCACGTCAGCCAGCGGAGTCACCTAGTGCAG,8230 fluorescence intensity (a.u.)
10,TTATGGTTTTTCCTTTTATTGTACTTTATCTTATAACATTCGGAGTCACCTAGTGCAG,9900 fluorescence intensity (a.u.)
11,TCTCCTTATACACTCATCATCCTTGTATAGACTTAAAAAGCGGAGTCACCTAGTGCAG,8070 fluorescence intensity (a.u.)
12,AGTATAAGCATGTGTGGGTTGGGATCGTATTGATATCAAACGGAGTCACCTAGTGCAG,13800 fluorescence intensity (a.u.)
13,CCGTCTCGTCTCGTCTCGTCTCCCACCTCGCACCATTCCTCGGAGTCACCTAGTGCAG,10800 fluorescence intensity (a.u.)
14,GAAAATGATCTCCTATTTTTATGCAGTGGTATTATTTACACGGAGTCACCTAGTGCAG,9040 fluorescence intensity (a.u.)
15,ACTTTTGTCTGGATGTTGCTTGCGTTCGTTCGTTCGTTAACGGAGTCACCTAGTGCAG,13400 fluorescence intensity (a.u.)
16,ATCTGTACAGTTTGTGACTAATTTGCAAGACGAATCTTTTCGGAGTCACCTAGTGCAG,11500 fluorescence intensity (a.u.)
17,TGCAAAGTGATCGATCGAGAGTTTGTCTTCACGTCCTTTTCGGAGTCACCTAGTGCAG,8120 fluorescence intensity (a.u.)
18,GTGAACTTACTCCTTATCTTTTCAGTTCTTGTTCCAATTCCGGAGTCACCTAGTGCAG,9900 fluorescence intensity (a.u.)
19,CAACGAGCCAACGACGTCCACTATCTTGACCTCATCCCGTCGGAGTCACCTAGTGCAG,8580 fluorescence intensity (a.u.)
20,ATTTTCTCAGCTCAAGTTGCTTGCTCCTCTTCTTTCTTTCCGGAGTCACCTAGTGCAG,10200 fluorescence intensity (a.u.)
21,TGCTACTAAATCCGCTGCTCTTTTTTTGGTACCAACAATTCGGAGTCACCTAGTGCAG,9200 fluorescence intensity (a.u.)
22,GTTCTTTTGGGCAATCTCGTCTGTATTCCTTTGTCGTCTACGGAGTCACCTAGTGCAG,10800 fluorescence intensity (a.u.)
23,AATTAGCTTGTTGTTTGCTTTGTGGTCGACATGGATGAATCGGAGTCACCTAGTGCAG,10700 fluorescence intensity (a.u.)
24,GGGGTTTTTCTTATGTTAGTATATGTGTGGGATGTGTGAACGGAGTCACCTAGTGCAG,16800 fluorescence intensity (a.u.)
25,ATATATATATATATATATATATATATATATACACACACACCGGAGTCACCTAGTGCAG,22200 fluorescence intensity (a.u.)
26,CTCTGACTCTCTGTTCCAATTCCCACACGTTTCTCTCGCGCGGAGTCACCTAGTGCAG,14800 fluorescence intensity (a.u.)
27,AAACCCTCGGCCTTTTTTTCTTCCCGAAGCTCCAAGGAATCGGAGTCACCTAGTGCAG,8940 fluorescence intensity (a.u.)

# Copied from the list.
# In binding signal, TCTCCTTATACACTCATCATCCTTGTATAGACTTAAAAAGCGGAGTCACCTAGTGCAG is entered as 8070 fluorescence intensity (a.u.)
# In binding signal, TGCAAAGTGATCGATCGAGAGTTTGTCTTCACGTCCTTTTCGGAGTCACCTAGTGCAG is entered as 8120 fluorescence intensity (a.u.)
# In binding signal, GGGGTTTTTCTTATGTTAGTATATGTGTGGGATGTGTGAACGGAGTCACCTAGTGCAG is entered as 16800 fluorescence intensity (a.u.)
# In binding signal, CAACGAGCCAACGACGTCCACTATCTTGACCTCATCCCGTCGGAGTCACCTAGTGCAG is entered as 8580 fluorescence intensity (a.u.)
